From article PMC12288870
Results are given in words; binding and its absence hold for the method and conditions named. In cells and extracts the contact can be indirect. Some binding calls cover weakened binding; strength is not graded here.

The chains behind the UniProt entries cited, without tags or fusion partners.
UniProt O60573: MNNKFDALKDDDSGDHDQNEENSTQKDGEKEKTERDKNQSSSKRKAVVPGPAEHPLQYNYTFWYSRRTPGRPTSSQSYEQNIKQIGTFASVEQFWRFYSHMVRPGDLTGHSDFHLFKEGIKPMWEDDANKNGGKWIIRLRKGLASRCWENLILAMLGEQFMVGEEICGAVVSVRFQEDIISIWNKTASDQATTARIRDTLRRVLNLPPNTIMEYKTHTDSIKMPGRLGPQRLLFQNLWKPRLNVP

Target: FLAG-tagged Nsp2 from SARS-CoV-1 (SARS-CoV-1) (UniProt P0C6X7)
Assay: co-IP

Molecule | binding
eIF4E2 (from UniProt O60573 1-245) | binds
GIGYF2 (protein, UniProt Q6Y7W6 1-1299) MAAETQTLNFGPEWLRALSSGGSITSPPLSPALPKYKLADYRYGREEMLALFLKDNKIPSDLLDKEFLPILQEEPLPPLALVPFTEEEQRNFSMSVNSAAVLRLTGRGGGGTVVGAPRGRSSSRGRGRGRGECGFYQRSFDEVEGVFGRGGGREMHRSQSWEERGDRRFEKPGRKDVGRPNFEEGGPTSVGRKHEFIRSESENWRIFREEQNGEDEDGGWRLAGSRRDGERWRPHSPDGPRSAGWREHMERRRRFEFDFRDRDDERGYRRVRSGSGSIDDDRDSLPEWCLEDAEEEMGTFDSSGAFLSLKKVQKEPIPEEQEMDFRPVDEGEECSDSEGSHNEEAKEPDKTNKKEGEKTDRVGVEASEETPQTSSSSARPGTPSDHQSQEASQFERKDEPKTEQTEKAEEETRMENSLPAKVPSRGDEMVADVQQPLSQIPSDTASPLLILPPPVPNPSPTLRPVETPVVGAPGMGSVSTEPDDEEGLKHLEQQAEKMVAYLQDSALDDERLASKLQEHRAKGVSIPLMHEAMQKWYYKDPQGEIQGPFNNQEMAEWFQAGYFTMSLLVKRACDESFQPLGDIMKMWGRVPFSPGPAPPPHMGELDQERLTRQQELTALYQMQHLQYQQFLIQQQYAQVLAQQQKAALSSQQQQQLALLLQQFQTLKMRISDQNIIPSVTRSVSVPDTGSIWELQPTASQPTVWEGGSVWDLPLDTTTPGPALEQLQQLEKAKAAKLEQERREAEMRAKREEEERKRQEELRRQQEEILRRQQEEERKRREEEELARRKQEEALRRQREQEIALRRQREEEERQQQEEALRRLEERRREEEERRKQEELLRKQEEEAAKWAREEEEAQRRLEENRLRMEEEAARLRHEEEERKRKELEVQRQKELMRQRQQQQEALRRLQQQQQQQQLAQMKLPSSSTWGQQSNTTACQSQATLSLAEIQKLEEERERQLREEQRRQQRELMKALQQQQQQQQQKLSGWGNVSKPSGTTKSLLEIQQEEARQMQKQQQQQQQHQQPNRARNNTHSNLHTSIGNSVWGSINTGPPNQWASDLVSSIWSNADTKNSNMGFWDDAVKEVGPRNSTNKNKNNASLSKSVGVSNRQNKKVEEEEKLLKLFQGVNKAQDGFTQWCEQMLHALNTANNLDVPTFVSFLKEVESPYEVHDYIRAYLGDTSEAKEFAKQFLERRAKQKANQQRQQQQLPQQQQQQPPQQPPQQPQQQDSVWGMNHSTLHSVFQTNQSNNQQSNFEAVQSGKKKKKQKMVRADPSLLGFSVNASSERLNMGEIETLDDY | binds
